# The other results are listed elsewhere or left out.
# B1: a L Fucosidase (Thermotoga maritima) (protein)
# chain: MASMKPRYKPDWESLREHTVPKWFDKAKFGIFIHWGIYSVPGWATPTGELGKVPMDAWFFQNPYAEWYENSLRIKESPTWEYHVKTYGENFEYEKFADLFTAEKWDPQEWADLFKKAGAKYVIPTTKHHDGFCLWGTKYTDFNSVKRGPKRDLVGDLAKAVREAGLRFGVYYSGGLDWRFTTEPIRYPEDLSYIRPNTYEYADYAYKQVMELVDLYLPDVLWNNMGWPEKGKEDLKYLFAYYYNKHPEGSVNDRWGVPHWDFKTAEYHVNYPGDLPGYKWEFTRGIGLSFGYNRNEGPEHMLSVEQLVYTLVDVVSKGGNLLLNVGPKGDGTIPDLQKERLLGLGEWLRKYGDAIYGTSVWERCCAKTEDGTEIRFTRKCNRIFVIFLGIPTGEKIVIEDLNLSAGTVRHFLTGERLSFKNVGKNLEITVPKKLLETDSITLVLEAVEE
# Legend:
# Test in all cases: glycan array binding signal (z-score within array); higher = stronger binding
# Conditions in all cases: glycan notation: IUPAC condensed, linker removed; mutation: D224N
# [1] = target: Fuc(a1-2)[Gal(a1-3)]Gal(b1-4)GlcNAc(b1-2)Man(a1-3)[Fuc(a1-2)[Gal(a1-3)]Gal(b1-4)GlcNAc(b1-2)Man(a1-6)]Man(b1-4)GlcNAc(b1-4)GlcNAc
# Method in brief: (§1)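 Columns mapping to the same glycan were averaged after glycan names were converted to IUPAC-condensed notation. The data come from 3228 arrays in the Consortium for Functional Glycomics database, limited to those with an available protein sequence. Binding is reported as a within-array Z-score averaged across arrays of one protein sequence and across linkers.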
# [2] = target: Fuc(a1-2)[Gal(a1-3)]Gal(b1-4)GlcNAc(b1-2)Man(a1-3)[Fuc(a1-2)[Gal(a1-3)]Gal(b1-4)GlcNAc(b1-2)Man(a1-6)]Man(b1-4)GlcNAc(b1-4)[Fuc(a1-6)]GlcNAc
# Method in brief: as §1
# [3] = target: Fuc(a1-2)[Gal(a1-3)]Gal(b1-4)GlcNAc(b1-3)GalNAc
# Method in brief: as §1
# [4] = target: Fuc(a1-2)[Gal(a1-3)]Gal(b1-4)GlcNAc(b1-3)[Fuc(a1-2)[Gal(a1-3)]Gal(b1-4)GlcNAc(b1-6)]GalNAc
# Method in brief: as §1
# [5] = target: Fuc(a1-2)[Gal(a1-3)]Gal(b1-4)GlcNAc(b1-6)GalNAc
# Method in brief: as §1
# [6] = target: Fuc(a1-2)[Gal(a1-3)]Gal(b1-4)[Fuc(a1-3)]Glc
# Method in brief: as §1
# [7] = target: Fuc(a1-2)[Gal(a1-3)]Gal(b1-4)[Fuc(a1-3)]GlcNAc
# Method in brief: as §1
# [8] = target: Fuc(a1-2)[Gal(a1-3)]Gal(b1-4)[Fuc(a1-3)]GlcNAc(b1-3)GalNAc
# Method in brief: as §1
# [9] = target: Fuc(a1-2)[Gal(a1-4)]Gal(b1-4)GlcNAc
# Method in brief: as §1
# [10] = target: Fuc(a1-2)[GalNAc(a1-3)]Gal
# Method in brief: as §1
# [11] = target: Fuc(a1-2)[GalNAc(a1-3)]Gal(b1-3)GalNAc(a1-3)[Fuc(a1-2)]Gal(b1-4)GlcNAc
# Method in brief: as §1
# [12] = target: Fuc(a1-2)[GalNAc(a1-3)]Gal(b1-3)GalNAc(b1-3)Gal(a1-4)Gal(b1-4)Glc
# Method in brief: as §1
# [13] = target: Fuc(a1-2)[GalNAc(a1-3)]Gal(b1-3)GlcNAc
# Method in brief: as §1
# [14] = target: Fuc(a1-2)[GalNAc(a1-3)]Gal(b1-3)GlcNAc(b1-2)Man(a1-3)[Fuc(a1-2)[GalNAc(a1-3)]Gal(b1-3)GlcNAc(b1-2)Man(a1-6)]Man(b1-4)GlcNAc(b1-4)GlcNAc
# Method in brief: as §1
# [15] = target: Fuc(a1-2)[GalNAc(a1-3)]Gal(b1-3)GlcNAc(b1-2)Man(a1-3)[Fuc(a1-2)[GalNAc(a1-3)]Gal(b1-3)GlcNAc(b1-2)Man(a1-6)]Man(b1-4)GlcNAc(b1-4)[Fuc(a1-6)]GlcNAc
# Method in brief: as §1
# [16] = target: Fuc(a1-2)[GalNAc(a1-3)]Gal(b1-3)GlcNAc(b1-3)GalNAc
# Method in brief: as §1
# [17] = target: Fuc(a1-2)[GalNAc(a1-3)]Gal(b1-3)GlcNAc(b1-6)GalNAc
# Method in brief: as §1
# [18] = target: Fuc(a1-2)[GalNAc(a1-3)]Gal(b1-4)Glc
# Method in brief: as §1
# [19] = target: Fuc(a1-2)[GalNAc(a1-3)]Gal(b1-4)GlcNAc
# Method in brief: as §1
# [20] = target: Fuc(a1-2)[GalNAc(a1-3)]Gal(b1-4)GlcNAc(b1-2)Man
# Method in brief: as §1
# [21] = target: Fuc(a1-2)[GalNAc(a1-3)]Gal(b1-4)GlcNAc(b1-2)Man(a1-3)[Fuc(a1-2)[GalNAc(a1-3)]Gal(b1-4)GlcNAc(b1-2)Man(a1-6)]Man(b1-4)GlcNAc(b1-4)GlcNAc
# Method in brief: as §1
# [22] = target: Fuc(a1-2)[GalNAc(a1-3)]Gal(b1-4)GlcNAc(b1-2)Man(a1-3)[Fuc(a1-2)[GalNAc(a1-3)]Gal(b1-4)GlcNAc(b1-2)Man(a1-6)]Man(b1-4)GlcNAc(b1-4)[Fuc(a1-6)]GlcNAc
# Method in brief: as §1
# [23] = target: Fuc(a1-2)[GalNAc(a1-3)]Gal(b1-4)GlcNAc(b1-3)Gal(b1-4)GlcNAc
# Method in brief: as §1
# [24] = target: Fuc(a1-2)[GalNAc(a1-3)]Gal(b1-4)GlcNAc(b1-3)Gal(b1-4)GlcNAc(b1-3)Gal(b1-4)GlcNAc
# Method in brief: as §1
# [25] = target: Fuc(a1-2)[GalNAc(a1-3)]Gal(b1-4)GlcNAc(b1-3)GalNAc
# Method in brief: as §1
# [26] = target: Fuc(a1-2)[GalNAc(a1-3)]Gal(b1-4)GlcNAc(b1-3)[Fuc(a1-2)[GalNAc(a1-3)]Gal(b1-4)GlcNAc(b1-6)]GalNAc
# Method in brief: as §1
# [27] = target: Fuc(a1-2)[GalNAc(a1-3)]Gal(b1-4)GlcNAc(b1-6)GalNAc
# Method in brief: as §1
# [28] = target: Fuc(a1-2)[GalNAc(a1-3)]Gal(b1-4)[Fuc(a1-3)]GlcNAc
# Method in brief: as §1
# [29] = target: Fuc(a1-2)[GalNAc(a1-3)]Gal(b1-4)[Fuc(a1-3)]GlcNAc(b1-3)GalNAc
# Method in brief: as §1
# [30] = target: Fuc(a1-2)[GalNAc(a1-4)]Gal(b1-4)GlcNAc
# Method in brief: as §1
# [31] = target: Fuc(a1-2)[GalNAc(b1-3)]Gal
# Method in brief: as §1
# Fuc(a1-3)GlcNAc = target: Fuc(a1-3)GlcNAc
# Method in brief: as §1
# [32] = target: Fuc(a1-3)[Gal(b1-4)]Glc6S
# Method in brief: as §1
# [33] = target: Fuc(a1-3)[Gal(b1-4)]GlcNAc
# Method in brief: as §1
# [34] = target: Fuc(a1-3)[Gal(b1-4)]GlcNAc(b1-2)Man
# Method in brief: as §1
# [35] = target: Fuc(a1-3)[Gal(b1-4)]GlcNAc(b1-2)Man(a1-3)[Fuc(a1-3)[Gal(b1-4)]GlcNAc(b1-2)Man(a1-6)]Man(b1-4)GlcNAc(b1-4)GlcNAc
# Method in brief: as §1
# [36] = target: Fuc(a1-3)[Gal(b1-4)]GlcNAc(b1-2)Man(a1-3)[Fuc(a1-3)[Gal(b1-4)]GlcNAc(b1-2)Man(a1-6)]Man(b1-4)GlcNAc(b1-4)[Fuc(a1-6)]GlcNAc
# Method in brief: as §1
binder,measurement,setting,value
B1,glycan array binding signal (z-score),[1],0.458
same,glycan array binding signal (z-score),[2],-0.853
same,glycan array binding signal (z-score),[3],-0.305
same,glycan array binding signal (z-score),[4],0.828
same,glycan array binding signal (z-score),[5],-0.437
same,glycan array binding signal (z-score),[6],-0.847
same,glycan array binding signal (z-score),[7],0.338
same,glycan array binding signal (z-score),[8],0.129
same,glycan array binding signal (z-score),[9],0.573
same,glycan array binding signal (z-score),[10],0.54
same,glycan array binding signal (z-score),[11],-0.304
same,glycan array binding signal (z-score),[12],-0.035
same,glycan array binding signal (z-score),[13],2.8
same,glycan array binding signal (z-score),[14],0.093
same,glycan array binding signal (z-score),[15],0.058
same,glycan array binding signal (z-score),[16],-0.058
same,glycan array binding signal (z-score),[17],-0.655
same,glycan array binding signal (z-score),[18],-0.503
same,glycan array binding signal (z-score),[19],-0.808
same,glycan array binding signal (z-score),[20],-0.899
same,glycan array binding signal (z-score),[21],0.374
same,glycan array binding signal (z-score),[22],0.588
same,glycan array binding signal (z-score),[23],1.02
same,glycan array binding signal (z-score),[24],0.201
same,glycan array binding signal (z-score),[25],-0.608
same,glycan array binding signal (z-score),[26],-0.644
same,glycan array binding signal (z-score),[27],-1.05
same,glycan array binding signal (z-score),[28],-0.067
same,glycan array binding signal (z-score),[29],0.894
same,glycan array binding signal (z-score),[30],-0.836
same,glycan array binding signal (z-score),[31],-0.14
same,glycan array binding signal (z-score),Fuc(a1-3)GlcNAc,-0.863
same,glycan array binding signal (z-score),[32],2.33
same,glycan array binding signal (z-score),[33],-0.745
same,glycan array binding signal (z-score),[34],-0.175
same,glycan array binding signal (z-score),[35],-0.636
same,glycan array binding signal (z-score),[36],1.05

# 2 successive entries already listed:
binder,measurement,setting,value
B1,glycan array binding signal (z-score),[33],-0.745
same,glycan array binding signal (z-score),[34],-0.175

# — the supplement of paper PMC8728848
